According to PMC4027211:
Results are given in words; binding and its absence hold for the method and conditions named. In cells and extracts the contact can be indirect. Some binding calls cover weakened binding; strength is not graded here.

By UniProt entry, the sequences of proteins in these tests, tags left out. Where a name states a change or a piece, a line headed by the entry shows the natural chain unless it says otherwise.
UniProt Q9WTL8: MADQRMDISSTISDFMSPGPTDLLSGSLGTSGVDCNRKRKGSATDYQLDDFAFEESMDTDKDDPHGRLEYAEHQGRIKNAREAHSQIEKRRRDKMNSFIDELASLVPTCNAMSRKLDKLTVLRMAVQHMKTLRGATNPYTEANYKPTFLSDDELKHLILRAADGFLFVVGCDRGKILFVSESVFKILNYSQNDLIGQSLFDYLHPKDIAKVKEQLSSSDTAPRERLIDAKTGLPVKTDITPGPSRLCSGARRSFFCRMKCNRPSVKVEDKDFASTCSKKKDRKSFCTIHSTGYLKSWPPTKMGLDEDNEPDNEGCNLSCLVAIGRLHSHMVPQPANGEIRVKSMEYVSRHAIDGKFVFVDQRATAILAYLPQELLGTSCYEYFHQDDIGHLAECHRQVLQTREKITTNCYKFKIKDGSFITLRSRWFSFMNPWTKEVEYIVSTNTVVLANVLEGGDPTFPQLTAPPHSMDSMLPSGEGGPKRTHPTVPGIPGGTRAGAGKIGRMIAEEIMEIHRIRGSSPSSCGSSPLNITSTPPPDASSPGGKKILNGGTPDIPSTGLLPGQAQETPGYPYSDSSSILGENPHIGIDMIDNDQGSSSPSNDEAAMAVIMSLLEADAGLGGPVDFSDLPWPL
UniProt Q05086: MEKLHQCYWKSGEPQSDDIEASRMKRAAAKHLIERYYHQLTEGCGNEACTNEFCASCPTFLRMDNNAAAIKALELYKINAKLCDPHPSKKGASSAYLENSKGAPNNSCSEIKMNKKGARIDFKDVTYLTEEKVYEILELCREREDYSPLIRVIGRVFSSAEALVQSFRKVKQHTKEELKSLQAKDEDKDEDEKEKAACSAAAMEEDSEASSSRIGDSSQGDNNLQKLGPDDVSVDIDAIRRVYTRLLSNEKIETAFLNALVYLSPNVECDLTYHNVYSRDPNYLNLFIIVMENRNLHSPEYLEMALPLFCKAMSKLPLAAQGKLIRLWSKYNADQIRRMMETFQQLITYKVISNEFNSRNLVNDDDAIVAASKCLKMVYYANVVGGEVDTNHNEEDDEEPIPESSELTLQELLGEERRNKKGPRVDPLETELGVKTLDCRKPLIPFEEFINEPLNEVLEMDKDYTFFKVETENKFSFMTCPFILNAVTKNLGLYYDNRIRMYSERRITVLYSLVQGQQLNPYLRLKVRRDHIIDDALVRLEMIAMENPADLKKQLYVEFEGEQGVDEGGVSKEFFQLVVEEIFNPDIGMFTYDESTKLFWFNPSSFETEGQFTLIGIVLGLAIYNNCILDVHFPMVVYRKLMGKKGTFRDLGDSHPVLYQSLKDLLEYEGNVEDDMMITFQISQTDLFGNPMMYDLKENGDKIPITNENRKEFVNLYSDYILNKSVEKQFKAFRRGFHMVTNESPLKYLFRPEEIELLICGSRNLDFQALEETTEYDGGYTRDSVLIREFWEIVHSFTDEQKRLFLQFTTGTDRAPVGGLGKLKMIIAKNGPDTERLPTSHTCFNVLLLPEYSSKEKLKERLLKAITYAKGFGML
UniProt O00327: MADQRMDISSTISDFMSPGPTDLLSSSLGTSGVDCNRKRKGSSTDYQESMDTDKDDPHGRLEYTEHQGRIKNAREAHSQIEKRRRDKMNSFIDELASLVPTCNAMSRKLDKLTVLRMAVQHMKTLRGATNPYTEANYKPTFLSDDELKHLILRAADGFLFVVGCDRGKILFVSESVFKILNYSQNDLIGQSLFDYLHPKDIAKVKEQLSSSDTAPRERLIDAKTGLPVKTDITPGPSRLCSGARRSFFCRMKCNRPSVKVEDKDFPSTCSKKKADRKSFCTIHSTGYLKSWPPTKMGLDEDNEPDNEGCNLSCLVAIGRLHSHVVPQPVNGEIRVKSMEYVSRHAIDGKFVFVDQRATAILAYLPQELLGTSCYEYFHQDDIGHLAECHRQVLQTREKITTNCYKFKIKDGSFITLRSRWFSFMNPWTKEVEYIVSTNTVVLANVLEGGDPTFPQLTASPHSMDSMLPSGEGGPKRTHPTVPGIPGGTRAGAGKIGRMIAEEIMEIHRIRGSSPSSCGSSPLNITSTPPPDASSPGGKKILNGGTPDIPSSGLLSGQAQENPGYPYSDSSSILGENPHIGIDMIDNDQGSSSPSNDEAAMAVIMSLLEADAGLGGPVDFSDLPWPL

Key:
[1] = biological target: V5-BMAL1 (brain and muscle Arnt-like 1) (UniProt Q9WTL8); assay: co-IP; HEK 293T cells transfected with V5-BMAL1 and Myc-UBE3A; with or without E6/E7, with or without MG132 (5 μM); IP with anti-V5 antibody at 4°C overnight, Protein G Dynabeads, lysis buffer 150-mM NaCl, 20-mM Tris-HCl pH7.5, 10% glycerol, 1% Triton X-100; myc-UBE3A detected by blot
[2] = biological target: HA-UBE3A (ubiquitin protein ligase E3A) (UniProt Q05086); assay: co-IP; HEK 293T cells transfected with HA-UBE3A and V5-BMAL1, in the presence of E6/E7; IP with anti-HA antibody at 4°C overnight, Protein G Dynabeads, lysis buffer 150-mM NaCl, 20-mM Tris-HCl pH7.5, 10% glycerol, 1% Triton X-100; V5-BMAL1 detected by anti-V5 blot
[3] = biological target: endogenous UBE3A (human (endogenous in SW1353)) (UniProt Q05086); assay: co-IP; endogenous proteins in unsynchronized SW1353 human chondrocytes in the presence of MG132; IP with anti-UBE3A antibody, BMAL1 detected by blot

## Myc-UBE3A (ubiquitin protein ligase E3A) (from UniProt Q05086 1-875) (enzyme)
[1]
  binding: binds

## V5-BMAL1 (brain and muscle Arnt-like 1) (from UniProt Q9WTL8 1-632)
[2]
  binding: binds

## endogenous BMAL1 (from UniProt O00327 1-626)
[3]
  binding: binds
